Results are given in words; binding and its absence hold for the method and conditions named. Binding seen in cells or lysates may run through a third protein. Some entries that bind do so weakly or less than the wild type.
Target: T1, Signal Transducer and Activator of Transcription 1 (STAT1) (mouse (endogenous in R1 mESC-derived EBs and MC3T3-E1)) (UniProt P42225)
T1 sequence: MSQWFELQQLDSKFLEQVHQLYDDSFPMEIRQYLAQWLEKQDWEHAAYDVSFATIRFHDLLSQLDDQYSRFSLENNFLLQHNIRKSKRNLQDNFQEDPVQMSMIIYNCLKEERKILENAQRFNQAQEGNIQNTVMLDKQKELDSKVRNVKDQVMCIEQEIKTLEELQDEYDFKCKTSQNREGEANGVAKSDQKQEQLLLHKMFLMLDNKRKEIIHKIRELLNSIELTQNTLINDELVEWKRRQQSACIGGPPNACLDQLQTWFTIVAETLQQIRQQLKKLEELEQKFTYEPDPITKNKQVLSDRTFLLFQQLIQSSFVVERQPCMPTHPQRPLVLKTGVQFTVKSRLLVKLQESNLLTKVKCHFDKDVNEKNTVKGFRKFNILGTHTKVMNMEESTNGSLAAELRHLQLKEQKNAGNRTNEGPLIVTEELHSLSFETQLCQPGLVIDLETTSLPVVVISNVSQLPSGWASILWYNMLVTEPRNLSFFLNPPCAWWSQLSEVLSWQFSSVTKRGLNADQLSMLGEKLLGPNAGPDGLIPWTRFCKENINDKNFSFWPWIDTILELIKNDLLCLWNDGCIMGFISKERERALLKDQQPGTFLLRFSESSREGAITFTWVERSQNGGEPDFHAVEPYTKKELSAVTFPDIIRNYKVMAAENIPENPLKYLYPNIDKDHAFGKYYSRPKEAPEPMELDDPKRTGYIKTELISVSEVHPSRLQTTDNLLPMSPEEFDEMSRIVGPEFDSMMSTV
Experiment: co-IP; IP with anti-STAT1 from lysates of MC3T3-E1 cells (control of the c-Src siRNA experiment), 48 hrs post-transfection; blot for Runx2 and STAT1

Amino acid sequences for entries named in this document (tags omitted).
UniProt Q08775: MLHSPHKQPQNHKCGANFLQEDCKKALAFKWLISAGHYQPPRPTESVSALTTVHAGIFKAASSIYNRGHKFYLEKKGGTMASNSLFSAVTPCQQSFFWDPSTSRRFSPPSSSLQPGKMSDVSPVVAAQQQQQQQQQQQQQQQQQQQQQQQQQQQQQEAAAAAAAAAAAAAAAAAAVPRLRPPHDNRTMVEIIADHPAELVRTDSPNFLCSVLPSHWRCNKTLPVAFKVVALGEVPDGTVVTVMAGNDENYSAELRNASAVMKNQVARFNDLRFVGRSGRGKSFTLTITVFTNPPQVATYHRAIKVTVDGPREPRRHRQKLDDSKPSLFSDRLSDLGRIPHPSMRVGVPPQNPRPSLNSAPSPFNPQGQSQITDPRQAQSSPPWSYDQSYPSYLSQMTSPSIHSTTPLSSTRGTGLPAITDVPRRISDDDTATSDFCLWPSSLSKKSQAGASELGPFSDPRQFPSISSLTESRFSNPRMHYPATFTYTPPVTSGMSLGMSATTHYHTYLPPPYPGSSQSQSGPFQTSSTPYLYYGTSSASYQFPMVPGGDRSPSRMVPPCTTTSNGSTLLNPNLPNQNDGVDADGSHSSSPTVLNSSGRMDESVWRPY

## Runt-related transcription factor 2 (Runx2) (from UniProt Q08775 1-607)
  binding: binds

Reference: paper PMC7660501
